From the supplement of paper PMC10849652
Some of the results follow.

Sequences of proteins named here, by UniProt entry; tags and fusion partners are left off. A change or cut given only in a name is not applied to a line headed by its entry.
UniProt P08236: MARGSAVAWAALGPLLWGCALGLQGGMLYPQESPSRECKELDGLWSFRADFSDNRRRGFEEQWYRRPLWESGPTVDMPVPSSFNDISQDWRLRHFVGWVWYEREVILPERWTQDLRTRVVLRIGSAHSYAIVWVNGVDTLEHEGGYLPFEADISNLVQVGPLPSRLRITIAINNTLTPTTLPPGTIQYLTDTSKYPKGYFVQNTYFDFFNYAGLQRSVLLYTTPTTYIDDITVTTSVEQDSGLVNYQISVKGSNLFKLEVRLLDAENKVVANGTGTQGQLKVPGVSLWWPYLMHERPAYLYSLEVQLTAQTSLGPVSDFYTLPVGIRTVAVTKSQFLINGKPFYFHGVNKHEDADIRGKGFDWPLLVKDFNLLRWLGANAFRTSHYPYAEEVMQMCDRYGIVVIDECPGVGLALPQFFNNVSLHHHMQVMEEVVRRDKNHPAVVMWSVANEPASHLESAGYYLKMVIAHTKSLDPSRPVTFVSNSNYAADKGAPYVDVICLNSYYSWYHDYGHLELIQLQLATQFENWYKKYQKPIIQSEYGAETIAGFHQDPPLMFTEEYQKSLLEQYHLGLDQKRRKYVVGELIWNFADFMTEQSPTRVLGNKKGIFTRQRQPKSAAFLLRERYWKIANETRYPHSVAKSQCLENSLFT
UniProt Q92664: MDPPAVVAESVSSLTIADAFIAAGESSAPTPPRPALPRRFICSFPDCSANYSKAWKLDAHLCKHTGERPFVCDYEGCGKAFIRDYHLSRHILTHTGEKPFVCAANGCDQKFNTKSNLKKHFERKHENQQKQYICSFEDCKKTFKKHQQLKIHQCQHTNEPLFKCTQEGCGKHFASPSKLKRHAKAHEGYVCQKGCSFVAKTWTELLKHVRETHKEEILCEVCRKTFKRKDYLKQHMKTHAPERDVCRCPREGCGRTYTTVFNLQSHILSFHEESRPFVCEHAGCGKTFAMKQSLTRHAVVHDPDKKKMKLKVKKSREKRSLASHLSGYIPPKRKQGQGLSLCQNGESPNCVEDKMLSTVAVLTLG
UniProt Q969F1: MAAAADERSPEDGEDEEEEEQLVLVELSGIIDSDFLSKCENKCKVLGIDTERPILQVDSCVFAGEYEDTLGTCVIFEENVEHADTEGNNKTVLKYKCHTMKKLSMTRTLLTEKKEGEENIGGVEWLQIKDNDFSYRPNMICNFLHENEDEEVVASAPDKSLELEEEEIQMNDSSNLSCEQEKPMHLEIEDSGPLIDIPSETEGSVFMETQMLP
UniProt P78347: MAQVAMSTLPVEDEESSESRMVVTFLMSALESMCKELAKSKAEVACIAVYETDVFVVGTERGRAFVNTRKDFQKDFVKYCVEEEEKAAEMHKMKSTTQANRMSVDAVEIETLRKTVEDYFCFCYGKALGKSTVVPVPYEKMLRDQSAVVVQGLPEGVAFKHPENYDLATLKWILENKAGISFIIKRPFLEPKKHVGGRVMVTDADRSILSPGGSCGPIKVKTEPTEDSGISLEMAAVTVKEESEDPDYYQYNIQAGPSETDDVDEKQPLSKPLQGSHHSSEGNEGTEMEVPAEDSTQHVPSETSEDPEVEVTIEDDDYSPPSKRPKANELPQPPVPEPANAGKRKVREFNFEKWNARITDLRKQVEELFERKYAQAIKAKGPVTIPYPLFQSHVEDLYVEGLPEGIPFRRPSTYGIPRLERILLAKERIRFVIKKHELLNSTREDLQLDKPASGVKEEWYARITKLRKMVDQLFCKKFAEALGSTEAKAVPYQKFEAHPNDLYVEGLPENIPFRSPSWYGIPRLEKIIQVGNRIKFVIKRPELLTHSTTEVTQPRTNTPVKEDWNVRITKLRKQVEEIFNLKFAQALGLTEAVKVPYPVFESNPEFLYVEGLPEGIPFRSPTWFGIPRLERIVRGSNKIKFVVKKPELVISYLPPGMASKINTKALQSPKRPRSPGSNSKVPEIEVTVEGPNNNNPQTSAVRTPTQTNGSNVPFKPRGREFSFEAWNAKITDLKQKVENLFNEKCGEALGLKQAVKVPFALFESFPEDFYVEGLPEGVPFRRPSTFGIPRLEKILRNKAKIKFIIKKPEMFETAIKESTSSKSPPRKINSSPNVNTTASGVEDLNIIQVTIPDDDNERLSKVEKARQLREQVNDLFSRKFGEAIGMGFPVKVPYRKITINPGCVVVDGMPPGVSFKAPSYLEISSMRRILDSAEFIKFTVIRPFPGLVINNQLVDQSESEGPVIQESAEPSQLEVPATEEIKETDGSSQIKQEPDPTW
UniProt Q9BT25: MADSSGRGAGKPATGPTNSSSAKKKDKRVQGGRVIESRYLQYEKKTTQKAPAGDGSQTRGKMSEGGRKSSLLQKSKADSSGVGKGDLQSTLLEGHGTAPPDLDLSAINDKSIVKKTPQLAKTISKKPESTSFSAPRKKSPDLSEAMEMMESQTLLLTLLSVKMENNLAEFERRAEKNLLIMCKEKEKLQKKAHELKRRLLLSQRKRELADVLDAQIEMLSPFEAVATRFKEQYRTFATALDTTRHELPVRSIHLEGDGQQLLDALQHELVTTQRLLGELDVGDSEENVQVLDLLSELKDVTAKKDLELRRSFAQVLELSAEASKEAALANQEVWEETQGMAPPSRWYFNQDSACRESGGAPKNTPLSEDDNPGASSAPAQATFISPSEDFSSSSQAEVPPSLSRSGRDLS
UniProt Q03013: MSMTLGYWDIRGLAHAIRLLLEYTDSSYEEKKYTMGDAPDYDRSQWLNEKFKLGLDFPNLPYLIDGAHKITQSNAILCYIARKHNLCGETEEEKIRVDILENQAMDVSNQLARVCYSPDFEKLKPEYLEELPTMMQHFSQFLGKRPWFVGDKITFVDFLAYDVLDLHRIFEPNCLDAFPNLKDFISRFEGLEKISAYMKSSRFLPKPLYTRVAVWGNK
UniProt P14317: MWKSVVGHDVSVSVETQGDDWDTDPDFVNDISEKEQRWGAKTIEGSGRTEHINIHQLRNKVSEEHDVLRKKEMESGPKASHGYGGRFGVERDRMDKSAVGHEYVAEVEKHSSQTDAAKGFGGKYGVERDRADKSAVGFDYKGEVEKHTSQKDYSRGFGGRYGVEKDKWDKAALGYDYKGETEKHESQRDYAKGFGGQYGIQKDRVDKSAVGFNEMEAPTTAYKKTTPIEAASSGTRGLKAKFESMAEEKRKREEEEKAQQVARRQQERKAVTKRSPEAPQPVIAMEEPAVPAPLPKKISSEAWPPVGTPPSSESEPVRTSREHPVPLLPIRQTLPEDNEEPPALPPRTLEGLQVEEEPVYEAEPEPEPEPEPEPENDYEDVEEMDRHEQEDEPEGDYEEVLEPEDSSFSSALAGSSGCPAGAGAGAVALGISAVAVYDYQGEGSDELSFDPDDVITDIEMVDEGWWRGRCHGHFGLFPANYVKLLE
UniProt A4D1E9: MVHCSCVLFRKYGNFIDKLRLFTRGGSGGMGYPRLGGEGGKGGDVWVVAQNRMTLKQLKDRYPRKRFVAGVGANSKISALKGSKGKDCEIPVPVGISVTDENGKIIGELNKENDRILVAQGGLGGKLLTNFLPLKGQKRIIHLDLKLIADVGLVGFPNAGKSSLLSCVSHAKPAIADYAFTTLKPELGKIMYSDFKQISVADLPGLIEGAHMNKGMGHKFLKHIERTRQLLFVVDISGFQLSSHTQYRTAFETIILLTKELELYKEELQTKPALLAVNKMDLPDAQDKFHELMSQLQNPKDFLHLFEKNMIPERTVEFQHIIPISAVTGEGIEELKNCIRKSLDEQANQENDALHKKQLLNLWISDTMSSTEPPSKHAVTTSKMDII

Columns and labels:
Test in all cases: log2 fold change, soluble protein after heating vs DMSO (PISA); higher = thermal stabilisation; K562 lysate, 10 uM; active = over 0.2 and 3.5 SD of the protein, either way, in both replicates (recomputed)
vemurafenib = compound: CCCS(=O)(=O)Nc1ccc(F)c(C(=O)c2c[nH]c3ncc(-c4ccc(Cl)cc4)cc23)c1F [vemurafenib]
Summary of the method: (§1)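 Dounce homogenisation of K562 pellets in PBS pH 7.4 with 1 mM MgCl2 produced a crude extract, used at 1 mg/mL protein. Exposure to 10 μM compound lasted 30 min, and aliquots were then heated for 3 min across 48°C-58°C, pooled and brought to 0.5% NP-40 at 4°C. The supernatant after 21,000xg for 90 min was quantified by TMTpro 16plex LC-MS/MS with channel sums equalised. Duplicate values are given as log-two fold change in thermal stability relative to solvent controls.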

[1] = compound: CCCS(=O)(=O)Nc1ccc(F)c(C(=O)c2c[nH]c3ncc(Cl)cc23)c1F
Summary of the method: as §1

barasertib = compound: CCN(CCCOc1ccc2c(Nc3cc(CC(=O)Nc4cccc(F)c4)[nH]n3)ncnc2c1)CCOP(=O)(O)O [barasertib]
Summary of the method: as §1

[2] = compound: CC[C@@H]1C(=O)N(C)c2cnc(Nc3ccc(C(=O)NC4CCN(C)CC4)cc3OC)nc2N1C1CCCC1
Summary of the method: as §1

volasertib = compound: CC[C@@H]1C(=O)N(C)c2cnc(Nc3ccc(C(=O)N[C@H]4CC[C@H](N5CCN(CC6CC6)CC5)CC4)cc3OC)nc2N1C(C)C [volasertib]
Summary of the method: as §1

[3] = compound: CCn1c(C(=O)N(C2CC2)C2CC2)cc2c3c(ncn3C)c(Nc3cc(C)n(C)n3)nc21
Summary of the method: as §1

[4] = compound: CCn1cc(-c2ccnc3[nH]c(-c4cccc(CN(C)C)c4)cc23)c(-c2ccc(NC(=O)N(C)C)cc2)n1
Summary of the method: as §1

[5] = compound: CN1CCC(CNc2ccc3ncc(-c4cccc(OC(F)(F)F)c4)n3n2)CC1
Summary of the method: as §1

saracatinib = compound: CN1CCN(CCOc2cc(OC3CCOCC3)c3c(Nc4c(Cl)ccc5c4OCO5)ncnc3c2)CC1 [saracatinib]
Summary of the method: as §1

sotrastaurin = compound: CN1CCN(c2nc(C3=C(c4c[nH]c5ccccc45)C(=O)NC3=O)c3ccccc3n2)CC1 [sotrastaurin]
Summary of the method: as §1

alvocidib = compound: CN1CC[C@H](c2c(O)cc(O)c3c(=O)cc(-c4ccccc4Cl)oc23)[C@H](O)C1 [alvocidib]
Summary of the method: as §1

Tubastatin A = compound: CN1CCc2c(c3ccccc3n2Cc2ccc(C(=O)NO)cc2)C1 [Tubastatin A]
Summary of the method: as §1

[6] = compound: CNC(=O)C1=CC=CC=C1NC2=NC(=NC=C2Cl)NC3=C(C=C(C=C3)N4CCOCC4)OC
Summary of the method: as §1

defactinib = compound: CNC(=O)c1ccc(Nc2ncc(C(F)(F)F)c(NCc3nccnc3N(C)S(C)(=O)=O)n2)cc1 [defactinib]
Summary of the method: as §1

[7] = compound: CNc1nc(-c2ccc3c(N)n[nH]c3c2)cc(N2C[C@@H](C(=O)NC3CCCCC3)CC[C@H]2C)n1
Summary of the method: as §1

encorafenib = compound: COC(=O)N[C@@H](C)CNc1nccc(-c2cn(C(C)C)nc2-c2cc(Cl)cc(NS(C)(=O)=O)c2F)n1 [encorafenib]
Summary of the method: as §1

[8] = compound: COC(=O)[C@H](CCSC)NC(=O)C1=C(C=C(C=C1)NC[C@H](CS)N)C2=CC=CC=C2
Summary of the method: as §1

alisertib = compound: COc1cc(Nc2ncc3c(n2)-c2ccc(Cl)cc2C(c2c(F)cccc2OC)=NC3)ccc1C(=O)O [alisertib]
Summary of the method: as §1

[9] = compound: COc1cc2nc(-c3cc(F)ccc3O)nc(N[C@@H]3CNC[C@H]3C(C)(C)O)c2cc1OC
Summary of the method: as §1

gefitinib = compound: COc1cc2ncnc(Nc3ccc(F)c(Cl)c3)c2cc1OCCCN1CCOCC1 [gefitinib]
Summary of the method: as §1

Target	log2 fold change (vemurafenib)	log2 fold change [1]	log2 fold change (barasertib)	log2 fold change [2]	log2 fold change (volasertib)	log2 fold change [3]	log2 fold change [4]	log2 fold change [5]	log2 fold change (saracatinib)	log2 fold change (sotrastaurin)	log2 fold change (alvocidib)	log2 fold change (Tubastatin A)	log2 fold change [6]	log2 fold change (defactinib)	log2 fold change [7]	log2 fold change (encorafenib)	log2 fold change [8]	log2 fold change (alisertib)	log2 fold change [9]	log2 fold change (gefitinib)
GUSB (UniProt P08236)	inactive: 0.013	inactive: 0.028	inactive: -0.024	inactive: -0.049	inactive: 0.053	inactive: 0.027	active: -0.561	active: 0.355	inactive: -0.008	inactive: 0.038	inactive: -0.278	inactive: 0.022	inactive: 0.017	inactive: 0.015	inactive: -0.027	inactive: 0.089	inactive: -0.019	inactive: 0.089	inactive: 0.071	inactive: -0.049
GTF3A (UniProt Q92664)	inactive: -0.064	inactive: -0.028	inactive: 0.009	inactive: 0.056	inactive: -0.019	inactive: -0.143	inactive: 0.097	inactive: -0.075	inactive: 0.064	inactive: -0.18	inactive: 0.06	inactive: 0.018	inactive: 0.043	inactive: 0.006	inactive: 0.021	inactive: -0.066	inactive: 0.094	inactive: -0.05	inactive: -0.026	inactive: -0.004
GTF3C6 (UniProt Q969F1)	inactive: -0.041	inactive: -0.01	inactive: -0.019	inactive: 0.039	inactive: 0.017	inactive: 0.016	inactive: 0.164	inactive: -0.096	inactive: 0.003	inactive: 0.008	inactive: -0.031	inactive: -0.087	inactive: -0.006	inactive: 0.046	inactive: -0.031	inactive: 0.053	inactive: 0.013	inactive: 0.014	inactive: 0.045	inactive: 0.054
GTF2I (UniProt P78347)	inactive: -0.004	inactive: 0.031	inactive: 0.034	inactive: -0.055	inactive: -0.036	inactive: 0.005	inactive: -0.054	inactive: -0.033	inactive: 0.014	inactive: 0.01	inactive: 0.05	inactive: -0.096	inactive: 0.012	inactive: 0.018	inactive: -0.035	inactive: 0.015	inactive: 0.14	inactive: 0.011	inactive: 0.004	inactive: -0.01
HAUS8 (UniProt Q9BT25)	inactive: -0.042	inactive: 0.04	inactive: -0.05	inactive: -0.049	inactive: 0.037	inactive: -0.005	inactive: -0.048	inactive: 0.029	inactive: 0.031	inactive: -0.001	inactive: 0.067	inactive: -0.173	inactive: -0.012	inactive: -0.06	inactive: 0.064	inactive: 0.063	inactive: -0.004	inactive: -0.063	inactive: -0.075	inactive: -0.031
GSTM4 (UniProt Q03013)	inactive: 0.055	inactive: 0.034	inactive: -0.044	inactive: 0.024	inactive: 0.03	inactive: 0.009	inactive: -0.114	inactive: 0.038	inactive: -0.13	inactive: -0.05	inactive: 0.006	inactive: -0.012	inactive: 0.029	inactive: 0.006	inactive: 0.077	inactive: -0.117	inactive: 0.095	inactive: 0.03	inactive: 0.002	inactive: 0.075
HCLS1 (UniProt P14317)	inactive: 0.045	inactive: -0.007	inactive: -0.043	inactive: 0.049	inactive: 0.021	inactive: 0	inactive: 0.032	inactive: -0.011	inactive: 0.016	inactive: 0.012	inactive: 0.022	inactive: 0.037	inactive: -0.015	inactive: 0.001	inactive: 0.01	inactive: 0.009	inactive: -0.039	inactive: 0.001	inactive: 0.005	inactive: -0.002
GTPBP10 (UniProt A4D1E9)	inactive: 0.02	inactive: 0.013	inactive: -0.033	inactive: 0.009	inactive: -0.082	inactive: -0.015	inactive: 0.042	inactive: -0.06	inactive: 0.012	inactive: 0.079	inactive: -0.011	inactive: -0.158	inactive: -0.04	inactive: 0.014	inactive: 0.016	inactive: -0.024	inactive: 0.226	inactive: -0.068	inactive: 0.017	inactive: -0.023
